# Results from PubChem BioAssay AID2685 (National Center for Advancing Translational Sciences (NCATS), 2010).
# About 2,100 (0.66%) of roughly 320,000 compounds were called active. The shares of active, inactive and inconclusive entries below differ from those in the screen. Calls follow the shape of the dose curve; as a rule, active = well fitted inhibition curve with a large enough effect in the signal ratio, with a control signal flat (not every such curve was filed as active); inconclusive = small, poorly fitted or top-dose-only effect, or effect the other way, or a change in a side signal; inactive = flat fitted curve, though single readings scatter; the % refers to the signal ratio. Where the call is inconclusive, the potency comes from a doubtful curve fit.
# Assay: qHTS Assay for Lipid Storage Modulators in Drosophila S3 Cells
# Conditions: BODIPY lipid droplet fluorescence, 18-24 h, cells fed with added oleic acid; lipid storage change, negative = inhibition: at 46.1 µM (top of the series) unless noted
# Summary of the method: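 Laser-scanning cytometry quantifies lipid droplet accumulation (500–530 nm total intensity; droplet/cell object ratio) in oleic acid-fed (400 uM added) Drosophila S3 cells treated with a concentration series. 20 uM Triacsin C defined 100% inhibition.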
# % is scaled to controls: 0 for no effect and ±100 for the full control effect; potency is read from the fitted curve at half-maximal effect.
Structure (SMILES),"lipid storage change, negative = inhibition",Potency
CC1Oc2ccccc2N(CC(=O)Nc2ccc(F)cc2)C1=O (centres undefined),inconclusive: 25.2%,
COC(=O)Cn1c(=NC(=O)c2nc3ccccc3s2)sc2cc(S(C)(=O)=O)ccc21,,"inconclusive: 0.0082 µM [activator, full curve]"
O=C(COC(=O)c1cncc(Br)c1)Nc1ccc(F)c(F)c1F,inconclusive: 34.2%,
CC1(C)Cc2ccccc2C(=NC(Cc2ccccc2)C(=O)O)N1 (centres undefined),inconclusive: -41.3%,
COC(=O)[C@H](Cc1ccccc1)NC(=O)Cn1ccc(NC(=O)OCc2ccccc2)nc1=O,inconclusive: -4.52%,
COC(=O)c1ccc(OCCOc2ccccc2C)cc1,inconclusive: 8.29%,
CCc1ccc(NC(=O)CSc2nc(=O)n(CCCN3CCOCC3)c3c2CCC3)cc1,inconclusive: -51.5%,
N/C(=N\OC(=O)c1ccc(Br)o1)c1ccccn1,inconclusive: -36.3% [cytotoxic] [at 0.369 µM],
Cn1c(=O)[nH]c(=O)c2c1nc(Br)n2CCCO,inconclusive: 5.49%,
Cc1ccc2[nH]c(CNC(=O)c3ccccc3F)cc2c1,inconclusive: 26.2%,
COc1ccc(/C=N/NC(=O)c2cccnc2)cc1,inconclusive: 17.1%,
CCOC(=O)c1sc(=NC(=O)CCSc2ccccc2)n(C)c1C,,"inconclusive: 7.31 µM [activator, partial curve, poor fit]"
Cc1onc(-c2ccccc2)c1C(=O)n1nnc2ccccc21,,"inconclusive: 29.1 µM [cytotoxic, single point]"
COc1ccc(CC(=O)Nc2sccc2C#N)cc1S(=O)(=O)N1CCOCC1,inconclusive,
Cc1cc(NC(=O)Cn2nc(C(F)(F)F)c3c2CCC3)n(-c2ccccc2)n1,inconclusive: 12.2% [at 9.22 µM],
COc1ccc(OC)c(NC(=O)CSc2nncc3ccccc23)c1,,"inconclusive: 6.51 µM [activator, single point]"
CC1(C)Cc2noc(N)c2C(C)(C)N1OC(=O)c1scc2c1OCCO2,inconclusive: 11.5%,
O=C1NC(c2ccccc2)=NC1(NS(=O)(=O)c1ccc(Cl)cc1)C(F)(F)F (centres undefined),,"inconclusive: 0.92 µM [falling, full curve]"
CC(=O)c1ccc(OCC(=O)NC2CCS(=O)(=O)C2)cc1 (centres undefined),inconclusive: -8.99%,
CN1CCC(N(C)CC(=O)Nc2ccccc2N2CCOCC2)CC1,,"inconclusive: 0.82 µM [falling, partial curve]"
COc1ccc(C(=O)C2CCCN(C(=O)c3n[nH]c4c3CCCC4)C2)cc1OC (centres undefined),inconclusive: -37.4%,
CC1CCN(C(=O)CN2C(=O)NC3(CCC(C)CC3)C2=O)CC1 (centres undefined),inconclusive: 20.3%,
COc1cccc2cc(C(=O)NC(C)c3ccccc3)c(=O)oc12 (centres undefined),inconclusive: 15.8%,
Cc1ccc(NC(=O)COc2cccc(/C=C3\SC(=S)N(CCC(=O)O)C3=O)c2)cc1Cl,inconclusive: -28.4%,
COc1cccc(/C=N/NC(=O)CCCc2ccc(OC)c(C)c2)c1,inconclusive: -28.6%,

Structure (SMILES),"lipid storage change, negative = inhibition",Potency
COc1ccc2c(c1)C(=O)C(=O)N2,inconclusive: 26.4%,
CCn1c(=S)sc2c(=O)n(CC(=O)Nc3cc(OC)ccc3OC)c(C)nc21,,"inconclusive: 29.1 µM [activator, single point]"
N#CC1(NC(=O)CSc2nnc(Nc3ccccc3F)s2)CCCC1,,"inconclusive: 5.17 µM [falling, full curve]"
O=C(NC1(C(F)(F)F)N=C2SCCN2C1=O)C1CCCCC1 (centres undefined),,"inconclusive: 0.082 µM [falling, full curve, poor fit]"
O=C(c1ccc2ccccc2c1)N1CCCC1,inconclusive: 4.58%,
COc1ccccc1N1CCN(C(=O)C2CCCN(S(=O)(=O)c3ccc4c(c3)CCCN4C(C)=O)C2)CC1 (centres undefined),,"inconclusive: 6.51 µM [activator, single point]"
O=C1OC(Nc2nccs2)c2ccccc21 (centres undefined),,"inconclusive: 1.03 µM [falling, full curve, poor fit]"
COc1cccc(Oc2coc3c(CN4CCOCC4)c(O)ccc3c2=O)c1,inconclusive: -132%,
CCCCn1nc(C(=O)NCC(=O)Nc2c(C)cccc2C)c2ccccc2c1=O,,"inconclusive: 1.64 µM [activator, partial curve, poor fit]"
N=c1c(S(=O)(=O)c2ccc(Br)cc2)cc2c(=O)n3ccccc3nc2n1Cc1ccco1,inconclusive: -22%,
COc1cccc(COC(=O)c2cc(=O)[nH]c3ccc(S(=O)(=O)N4CCOCC4)cc23)c1OC,inconclusive: 9.59%,
Cc1cc(=O)oc2c3c(cc(OCC(=O)NCc4ccco4)c12)OC(C)(C)CC3,inconclusive: -79.9%,
CCC(=O)c1cn(CC(=O)Nc2ccc(OC)cc2)c2ccccc12,,"inconclusive: 0.58 µM [activator, single point]"
O=C(NN1C(=O)c2ccccc2NC1c1ccco1)c1ccc([N+](=O)[O-])cc1 (centres undefined),inconclusive: -55.9%,
CCCCOC(=O)NCN1C(=O)C2C3C=CC(C3)C2C1=O (centres undefined),,"inconclusive: 23.1 µM [cytotoxic, partial curve, poor fit]"
Cc1ccc(S(=O)(=O)N(C)C)cc1NC(=O)COC(=O)c1ccc2c(c1)OCO2,inconclusive: -10.9%,
O=C(Nc1ccc(Cl)cc1)c1ccc(S(=O)(=O)N2CCOCC2)cc1,,"inconclusive: 29.1 µM [falling, single point]"
O=S(=O)(c1ccc(Cl)cc1)N1CCN(C(=S)NCC2CCCO2)CC1 (centres undefined),inconclusive: -32.8% [at 0.00295 µM],
Cc1ccc2nc(-c3ccccc3)c(CN3CCSCC3)n2c1,inconclusive: -18.5%,
CC(=O)Nc1ccc(NC(=O)CS(=O)(=O)Cc2ccccc2)cc1,,"inconclusive: 32.6 µM [falling, single point]"
CCN(CC(=O)NCc1ccc(Cl)cc1)C(=O)C1CCN(S(=O)(=O)c2ccc(OC)c(OC)c2)CC1,,"inconclusive: 6.51 µM [falling, single point]"
COC(=O)COc1nsnc1N1CCOCC1,,active: 5.8 µM
COC(C[C@H](O)C[C@@H](O)[C@H](C)OCc1ccccc1)OC,inconclusive: -5.86%,
Cc1nc2scc(-c3ccc(Cl)cc3)c2c(=O)o1,,"inconclusive: 1.84 µM [rising, partial curve]"
COC(=O)c1cc2sc(Cl)cc2n1CC(=O)Nc1cccc(SC)c1,,"inconclusive: 29.1 µM [falling, single point]"

# 4 entries from above, as tab-separated lines:
Structure (SMILES)	lipid storage change, negative = inhibition	Potency
CCN(CC(=O)NCc1ccc(Cl)cc1)C(=O)C1CCN(S(=O)(=O)c2ccc(OC)c(OC)c2)CC1		inconclusive: 6.51 µM [falling, single point]
COC(=O)COc1nsnc1N1CCOCC1		active: 5.8 µM
COC(C[C@H](O)C[C@@H](O)[C@H](C)OCc1ccccc1)OC	inconclusive: -5.86%	
Cc1nc2scc(-c3ccc(Cl)cc3)c2c(=O)o1		inconclusive: 1.84 µM [rising, partial curve]

# Remaining list, next part:

Structure (SMILES),"lipid storage change, negative = inhibition",Potency
NS(=O)(=O)c1cccc(NC(=O)COC(=O)Cn2cc(C(F)(F)F)ccc2=O)c1,inconclusive: -8.48%,
CCc1ccc(NC(=O)CSc2nc3ccsc3c(=O)n2CCC(=O)O)cc1,inconclusive: 31.1%,
CS(=O)(=O)N1N=C(c2ccco2)CC1c1ccccc1Cl (centres undefined),inconclusive: 19.1%,
O=C(COc1ccc2c(c1)oc(=O)c1ccccc12)NCC1CCC(C(=O)O)CC1 (centres undefined),inconclusive: -9.32%,
CC(=O)OCP(C)(=O)COC(C)=O,,"inconclusive: 6.51 µM [falling, full curve, poor fit]"
Cc1ccc(Nc2ccc(C(N)=O)cc2[N+](=O)[O-])cc1C,,"inconclusive: 29.1 µM [falling, single point]"
O=C(C1=C(O)C(=O)N(CC2CCCO2)C1c1ccc(Cl)cc1Cl)c1ccco1 (centres undefined),inconclusive: 22.5%,
CCOC(=O)C(C)Sc1nc2ccccc2c(=O)n1CC (centres undefined),inconclusive: -22.9%,
O=C(c1cccs1)N1CCN(C(=O)c2ccco2)c2ccccc2C1,inconclusive: 18%,
CN1C(=O)/C(=C/c2ccccc2Cl)Sc2ccc(C(=O)N3CCCC3)cc21,inconclusive: -188%,
Cc1cc(C)cc(Nc2nc3c(S(=O)(=O)c4ccccc4)nnn3c3ccccc23)c1,,"inconclusive: 0.731 µM [activator, single point]"
COc1cccc(C2c3[nH]c4ccccc4c3C[C@H]3C(=O)N(c4ccccc4C(=O)N4CCC[C@H]4C(=O)O)C(=O)N23)c1 (some centres undefined),inconclusive: 20.9%,
CCn1cc(C(=O)NCCCN(C)c2ccccc2)c(=O)c2cc(S(=O)(=O)N(C)C)ccc21,inconclusive: -13.6%,
CCOc1ccc(NC(=O)c2c(NC(=O)CN3CCN(C)CC3)sc3c2CCC3)cc1,inconclusive: 14.6%,
COc1ccc(NC(=O)COC(=O)CNS(=O)(=O)c2ccccc2)cc1OC,inconclusive: -25.2%,
CC(C)(C)NS(=O)(=O)c1ccc(NC(=O)C(Sc2ccccc2)c2ccccc2)cc1 (centres undefined),inconclusive: -48.9%,
O=C(CSc1nccc(=O)[nH]1)NC1CCCC1,,"inconclusive: 0.116 µM [falling, single point]"
O=C(CNC(=O)c1ccccc1Cl)N/N=C/c1ccc([N+](=O)[O-])s1,inconclusive: -26.6%,
O=C(O)CC/C(=N/NC(=O)CNC(=O)Cc1ccc(Cl)cc1)c1ccccc1,inconclusive: 11.6%,
Cc1cc(C(=O)N2CCc3ccccc32)c2cc(F)ccc2n1,,"inconclusive: 0.517 µM [activator, full curve, poor fit]"
CC(NC(=O)CSc1nc(C2CC2)n(-c2ccccc2)n1)c1ccco1 (centres undefined),inconclusive: 4.66%,
Cn1c(N)c(C(=O)COC(=O)/C=C/c2cccc(Br)c2)c(=O)n(C)c1=O,inconclusive: -2.1%,
CCOc1ccc(/C=C2\SC(=S)N(CC(=O)Nc3ccccn3)C2=O)cc1,,"inconclusive: 29.1 µM [activator, single point]"
CN(Cc1ccccc1F)C(=O)C1CCCN(C(=O)c2ccc(Cl)cc2)C1 (centres undefined),inconclusive,
